Measurements published in PMC7733513.
Where two headings read alike, the source gives them in different places. These are yes or no findings as the source states them, for the method shown. Binding seen in cells or lysates may run through a third protein. Some binding calls cover weakened binding; strength is not graded here. For some assays here: Sequences can lack the tags named with a protein. One block for each molecule: values may come before it.

The chains behind the UniProt entries cited, without tags or fusion partners. Where a name states a change or a piece, a line headed by the entry shows the natural chain unless it says otherwise. Residues count along the entry.
UniProt P04279: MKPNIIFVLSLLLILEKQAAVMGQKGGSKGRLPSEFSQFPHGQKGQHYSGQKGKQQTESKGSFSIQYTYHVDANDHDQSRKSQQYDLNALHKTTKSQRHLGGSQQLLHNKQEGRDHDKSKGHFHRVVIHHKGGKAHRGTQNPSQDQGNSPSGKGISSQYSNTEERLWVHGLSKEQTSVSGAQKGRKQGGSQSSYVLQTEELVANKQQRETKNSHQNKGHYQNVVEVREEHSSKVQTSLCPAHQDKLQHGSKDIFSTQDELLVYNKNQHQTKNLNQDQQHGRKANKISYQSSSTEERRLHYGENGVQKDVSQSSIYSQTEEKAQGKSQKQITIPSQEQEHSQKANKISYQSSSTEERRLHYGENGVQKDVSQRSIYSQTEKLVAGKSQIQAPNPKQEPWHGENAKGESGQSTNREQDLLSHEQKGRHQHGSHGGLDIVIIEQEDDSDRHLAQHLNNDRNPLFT
GST-SEMG1 (truncated SEMG1 lacking the signal peptide, 23-461 a.a.): residues 23-461 of P04279
3×Flag-SEMG1 (full-length SEMG1): residues 24-462 of P04279
UniProt P14618: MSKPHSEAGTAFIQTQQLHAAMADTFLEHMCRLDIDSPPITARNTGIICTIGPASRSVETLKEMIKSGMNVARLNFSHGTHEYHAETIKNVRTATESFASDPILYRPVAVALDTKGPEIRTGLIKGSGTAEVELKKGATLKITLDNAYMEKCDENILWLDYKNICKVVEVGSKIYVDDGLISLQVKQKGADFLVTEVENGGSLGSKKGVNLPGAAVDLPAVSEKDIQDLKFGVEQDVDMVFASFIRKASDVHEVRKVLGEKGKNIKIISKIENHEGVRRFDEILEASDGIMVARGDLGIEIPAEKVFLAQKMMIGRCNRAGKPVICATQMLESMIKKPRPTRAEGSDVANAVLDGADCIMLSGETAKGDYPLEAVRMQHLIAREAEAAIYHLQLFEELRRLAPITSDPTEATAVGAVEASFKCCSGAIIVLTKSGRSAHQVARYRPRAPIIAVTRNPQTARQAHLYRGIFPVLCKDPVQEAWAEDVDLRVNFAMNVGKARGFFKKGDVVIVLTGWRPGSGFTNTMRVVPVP

Key:
[1] = molecular target: T1, 3×Flag-SEMG2 (full-length SEMG2) (human) (UniProt Q02383); experiment: co-IP; HEK293T transfected with 3×Flag-SEMG1 or 3×Flag-SEMG2 (empty vector as control); anti-Flag M2 agarose 4 h, 50 mM Tris-HCl pH 7.4, 150 mM NaCl, 20 mM EDTA, 0.1% Triton X-100; washed with TBS; western blot
T1 sequence: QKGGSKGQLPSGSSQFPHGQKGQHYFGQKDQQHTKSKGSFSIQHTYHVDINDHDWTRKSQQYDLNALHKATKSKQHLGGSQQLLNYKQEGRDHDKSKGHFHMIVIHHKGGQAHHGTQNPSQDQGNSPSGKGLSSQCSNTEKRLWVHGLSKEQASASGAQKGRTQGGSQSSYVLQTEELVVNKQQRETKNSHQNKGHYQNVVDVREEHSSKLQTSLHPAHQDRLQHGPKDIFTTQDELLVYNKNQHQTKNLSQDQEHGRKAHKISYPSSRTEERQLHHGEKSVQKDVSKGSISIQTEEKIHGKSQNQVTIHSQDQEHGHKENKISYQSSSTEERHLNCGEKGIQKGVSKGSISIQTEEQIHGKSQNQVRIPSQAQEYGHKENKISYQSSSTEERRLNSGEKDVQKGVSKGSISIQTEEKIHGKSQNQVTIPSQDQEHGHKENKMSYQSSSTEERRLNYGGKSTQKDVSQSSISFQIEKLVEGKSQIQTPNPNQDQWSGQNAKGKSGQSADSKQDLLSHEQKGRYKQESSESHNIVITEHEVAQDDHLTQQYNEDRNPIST

[2] = molecular target: 3×Flag-SEMG1 (full-length SEMG1) (human) (UniProt P04279); experiment: as above
[3] = molecular target: 3×Flag-tagged PKM2 (full length) (human) (UniProt P14618); experiment: co-IP; reciprocal: H520 cells transiently transfected with 3×Flag-LDHA, 3×Flag-PKM2 or empty vector; anti-Flag M2 agarose 48 h after transfection; blot of endogenous SEMG1 and SEMG2
[4] = molecular target: GST-SEMG1 (truncated SEMG1 lacking the signal peptide, 23-461 a.a.) (human) (UniProt P04279); experiment: pull-down; 50 µg GST-SEMG1 or GST-SEMG2 (GST as control) incubated 3 h with MCF7 cell extract pre-incubated with GST; western blot with antibodies against LDHA, PKM2 and IDH2; only the target purified
[5] = molecular target: T1, 3×Flag-SEMG2 (full-length SEMG2) (human); experiment: co-IP; HEK293T transfected with 3×Flag-SEMG1 or 3×Flag-SEMG2 (empty vector as control); anti-Flag M2 agarose 4 h, 50 mM Tris-HCl pH 7.4, 150 mM NaCl, 20 mM EDTA, 0.1% Triton X-100; washed with TBS; western blot; remark: listed apart in the source
[6] = molecular target: 3×Flag-SEMG1 (full-length SEMG1) (human) (UniProt P04279); experiment: as above; remark: listed apart in the source
[7] = molecular target: GST-SEMG1 (truncated SEMG1 lacking the signal peptide, 23-461 a.a.) (human) (UniProt P04279); experiment: pull-down; 50 µg GST-SEMG1 or GST-SEMG2 (GST as control) incubated 3 h with MCF7 cell extract pre-incubated with GST; western blot with antibodies against LDHA, PKM2 and IDH2; only the target purified; remark: listed apart in the source

Molecule: PKM2, endogenous in HEK293T cells (from UniProt P14618-1 1-531) (enzyme)
- binding [1]: binds
- binding [2]: binds

Molecule: pyruvate kinase M2 (PKM2), endogenous in MCF7 cell extract (from UniProt P14618-1 1-531) (enzyme)
- binding [4]: binds

B2: IDH2, endogenous in HEK293T cells (enzyme, UniProt P48735 40-452)
chain: ADKRIKVAKPVVEMDGDEMTRIIWQFIKEKLILPHVDIQLKYFDLGLPNRDQTDDQVTIDSALATQKYSVAVKCATITPDEARVEEFKLKKMWKSPNGTIRNILGGTVFREPIICKNIPRLVPGWTKPITIGRHAHGDQYKATDFVADRAGTFKMVFTPKDGSGVKEWEVYNFPAGGVGMGMYNTDESISGFAHSCFQYAIQKKWPLYMSTKNTILKAYDGRFKDIFQEIFDKHYKTDFDKNKIWYEHRLIDDMVAQVLKSSGGFVWACKNYDGDVQSDILAQGFGSLGLMTSVLVCPDGKTIEAEAAHGTVTRHYREHQKGRPTSTNPIASIFAWTRGLEHRGKLDGNQDLIRFAQMLEKVCVETVESGAMTKDLAGCIHGLSNVKLNEHFLNTTDFLDTIKSNLDRALGRQ
- binding [5]: binds
- binding [6]: binds

B3: IDH2, endogenous in MCF7 cell extract (enzyme, UniProt P48735 40-452)
chain: B2 chain
- binding [7]: binds

Other lines, results leading:

- binding [3]: binds
Molecule: endogenous SEMG1 in H520 cells (from UniProt P04279-1 24-462)

- binding [3]: binds
B1: endogenous SEMG2 in H520 cells (protein, UniProt Q02383 24-582)
chain: T1 sequence
